Among the data in PMC9266971 are binding values, retold here.

Chains of the proteins cited; added tags and fusions are not shown. Lines headed by an entry give the natural chain unless they say otherwise; changes in a name come on top. A line that says so, or that is headed by a name, gives the form on record, which may keep a tag or linker.
UniProt P26678: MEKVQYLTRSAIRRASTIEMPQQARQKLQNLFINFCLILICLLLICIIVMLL
GST-PLN-R14del recombinant protein (P26678, form named): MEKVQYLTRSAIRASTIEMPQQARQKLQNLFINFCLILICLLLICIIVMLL
SERCA2a expressed from a plasmid in HEK 293 cells (P16615-2, form named): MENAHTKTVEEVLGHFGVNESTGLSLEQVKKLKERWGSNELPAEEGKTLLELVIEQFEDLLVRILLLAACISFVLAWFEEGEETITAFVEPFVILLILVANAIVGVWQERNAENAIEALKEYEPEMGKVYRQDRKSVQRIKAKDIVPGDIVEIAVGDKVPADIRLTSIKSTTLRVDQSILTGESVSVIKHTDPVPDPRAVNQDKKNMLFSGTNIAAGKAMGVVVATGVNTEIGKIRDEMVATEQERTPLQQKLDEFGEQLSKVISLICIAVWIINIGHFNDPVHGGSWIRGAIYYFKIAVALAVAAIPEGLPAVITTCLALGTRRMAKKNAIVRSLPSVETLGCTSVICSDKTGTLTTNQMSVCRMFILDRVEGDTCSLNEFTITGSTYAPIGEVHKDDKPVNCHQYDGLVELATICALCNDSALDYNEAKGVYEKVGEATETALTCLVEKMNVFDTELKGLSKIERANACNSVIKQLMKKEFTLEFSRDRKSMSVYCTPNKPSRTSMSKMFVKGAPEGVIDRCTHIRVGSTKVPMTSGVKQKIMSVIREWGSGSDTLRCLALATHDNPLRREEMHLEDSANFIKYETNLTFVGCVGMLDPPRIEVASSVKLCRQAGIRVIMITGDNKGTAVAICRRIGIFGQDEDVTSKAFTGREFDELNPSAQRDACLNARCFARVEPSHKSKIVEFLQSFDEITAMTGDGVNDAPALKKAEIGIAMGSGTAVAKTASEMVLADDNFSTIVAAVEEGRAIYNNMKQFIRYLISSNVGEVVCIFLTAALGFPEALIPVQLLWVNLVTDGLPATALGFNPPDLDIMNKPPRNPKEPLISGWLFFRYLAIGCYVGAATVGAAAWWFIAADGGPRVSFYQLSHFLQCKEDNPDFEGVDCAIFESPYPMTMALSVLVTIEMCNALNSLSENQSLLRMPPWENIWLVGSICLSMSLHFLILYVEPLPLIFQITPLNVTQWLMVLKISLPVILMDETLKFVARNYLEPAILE
Sarcoplasmic reticulum calcium ATPase (SERCA2a), mouse heart (O55143-2, form named): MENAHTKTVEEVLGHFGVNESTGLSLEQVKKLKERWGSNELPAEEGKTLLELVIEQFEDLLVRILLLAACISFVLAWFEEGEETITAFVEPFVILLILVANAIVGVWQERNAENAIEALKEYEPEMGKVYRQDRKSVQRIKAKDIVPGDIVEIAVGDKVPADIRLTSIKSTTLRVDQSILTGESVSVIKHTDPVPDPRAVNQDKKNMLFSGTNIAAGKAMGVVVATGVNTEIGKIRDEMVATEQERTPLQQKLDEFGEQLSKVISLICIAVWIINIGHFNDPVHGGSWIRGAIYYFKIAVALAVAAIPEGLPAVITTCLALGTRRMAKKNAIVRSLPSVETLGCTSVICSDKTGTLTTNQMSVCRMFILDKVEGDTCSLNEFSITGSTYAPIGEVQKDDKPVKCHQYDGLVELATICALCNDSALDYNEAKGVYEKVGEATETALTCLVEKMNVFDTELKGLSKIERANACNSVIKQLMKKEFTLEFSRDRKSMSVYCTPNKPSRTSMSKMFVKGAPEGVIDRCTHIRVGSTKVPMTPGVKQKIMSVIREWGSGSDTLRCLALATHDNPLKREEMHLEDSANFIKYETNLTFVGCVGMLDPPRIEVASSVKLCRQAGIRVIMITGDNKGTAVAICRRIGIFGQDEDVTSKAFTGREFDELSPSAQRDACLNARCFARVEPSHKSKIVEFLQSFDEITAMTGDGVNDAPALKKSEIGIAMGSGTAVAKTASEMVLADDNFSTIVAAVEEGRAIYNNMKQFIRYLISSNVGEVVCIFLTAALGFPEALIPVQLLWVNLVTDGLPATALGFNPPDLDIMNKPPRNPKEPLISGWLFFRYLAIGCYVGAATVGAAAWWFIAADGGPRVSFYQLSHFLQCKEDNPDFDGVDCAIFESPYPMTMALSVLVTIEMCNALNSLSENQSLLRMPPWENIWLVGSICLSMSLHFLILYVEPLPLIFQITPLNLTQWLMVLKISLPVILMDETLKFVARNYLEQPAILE
UniProt O35387: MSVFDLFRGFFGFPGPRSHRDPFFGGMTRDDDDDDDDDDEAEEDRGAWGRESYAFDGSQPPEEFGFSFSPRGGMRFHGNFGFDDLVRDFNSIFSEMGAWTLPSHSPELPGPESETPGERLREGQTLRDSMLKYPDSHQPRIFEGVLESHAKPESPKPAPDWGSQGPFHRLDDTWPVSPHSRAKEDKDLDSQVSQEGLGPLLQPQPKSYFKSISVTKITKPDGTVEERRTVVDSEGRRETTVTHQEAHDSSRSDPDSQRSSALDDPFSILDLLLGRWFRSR

Results are given in words; binding and its absence hold for the method and conditions named. In cells and extracts the contact can be indirect. Some binding calls cover weakened binding; strength is not graded here.

In one test the target is GFP-PLN-R14del (UniProt P26678). The test is described as follows: co-IP; GFP antibody and protein-A/G agarose on lysates (50 mM Tris HCl, 150 mM NaCl, 1% NP40) of HEK 293 cells co-transfected with GFP-PLN and SERCA2a, with or without 10 μM isoproterenol for 30 min at 37 °C; Western blot for SERCA2.
The next test concerns the target GFP-PLN-WT (UniProt P26678). The test is described as above.
The target of test [1] is GST-PLN-R14del recombinant protein (UniProt P26678). Nature of the test: pull-down; equivalent amounts of GST-PLN-WT or GST-PLN-R14del on glutathione beads mixed with 0.5 mg wild-type mouse cardiac homogenate (10 mM NaPO4 pH 7.2, 2 mM EDTA, 10 mM NaN3, 120 mM NaCl, 1% NP-40), 4 °C, 16 h; Western blot; for Figure 3c the GST proteins were first treated with PKA; only the target purified. For orientation: Immunoblotting shows a protein as a band on a membrane.

In test [2] the target is GST-PLN-WT recombinant protein (UniProt P26678). The description is as above.
Test [3] deals with GST-PLN-WT recombinant protein phosphorylated in vitro by PKA (UniProt P26678). Described as above.

As to “SERCA2a expressed from a plasmid in HEK 293 cells (from UniProt P16615-2 1-997)”, the binding result with GFP-PLN-R14del and in the test with GFP-PLN-WT was “binds” throughout.

For the substance “Sarcoplasmic reticulum calcium ATPase (SERCA2a), mouse heart (from UniProt O55143-2 1-998)”, the binding result in test [1], in test [2] and in test [3] was “binds” in each case.

In the case of “HS-1-associated protein X-1 (HAX-1), mouse heart (from UniProt O35387 1-280)”, the binding entry in test [1] and in test [2] was “binds” in each case.
